PMC9682256

Target: T1, murine PiC2 (SLC25A3), mitochondrial phosphate carrier / Cu+ transporter (mouse (endogenous in primary myoblasts)) (UniProt Q8VEM8)
T1 sequence: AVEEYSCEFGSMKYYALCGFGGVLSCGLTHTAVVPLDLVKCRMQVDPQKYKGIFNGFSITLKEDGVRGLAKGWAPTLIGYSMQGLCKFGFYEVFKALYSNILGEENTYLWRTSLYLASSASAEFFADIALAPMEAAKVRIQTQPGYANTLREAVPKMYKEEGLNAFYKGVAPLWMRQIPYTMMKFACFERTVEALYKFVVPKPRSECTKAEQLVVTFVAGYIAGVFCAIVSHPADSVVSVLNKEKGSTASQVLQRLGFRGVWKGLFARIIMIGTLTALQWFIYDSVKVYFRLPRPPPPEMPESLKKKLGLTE
Assay: co-IP; extracts of proliferating and differentiating primary myoblasts grown with or without CuSO4; IP lysis buffer (50 mM Tris-HCl pH 7.5, 150 mM NaCl, 1% Nonidet P-40, 0.5% sodium deoxycholate); anti-PiC2 or anti-COX1 antibody, 4°C 2 h, protein A/G magnetic beads overnight; western blot

“Sco1 (mouse (endogenous in primary myoblasts))” was tested, and the binding was “binds”.

These are yes or no findings as the source states them, for the method shown. In cells and extracts the contact can be indirect. Binding calls can cover weak binding; strength is not graded here.
